Percent effect of library compounds

The values are deposited in ChEMBL (CHEMBL3988442, “University of Dundee, Small-Polar-MMV Screening Library” (2021)).

A: 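Whole-parasite assay of Trypanosoma brucei over 72 hours; the read-out is not stated. Concentration: 30 µM. Direction is inferred from retests: higher values go with stronger inhibition. Values scatter widely below zero; nearly all retest evidence comes from the higher of the two concentrations used. Size under these conditions: about 64,000 compounds, about 940 of them at 50% or above in at least one test.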
B: 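Assay of Toxoplasma gondii numbers, read through their beta-galactosidase reporter with a colour substrate. Compounds at 10 µM. Higher reads as fewer parasites (inferred from which compounds were picked for retests). Size under these conditions: about 67,000 compounds, about 260 of them at 50% or above in at least one test.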

Results are given as percent effect. The controls that fix the scale are not given in the record; negative values are as filed. This is an unselected part of the compounds tested.

{"compound": "COc1ccccc1C(=O)NC(C)CC(=O)O", "stereo": "stereo not given", "A": 9.261, "B": 4.668}
{"compound": "CCOC(C)c1noc(CN2CCN(c3nnc(C)s3)CC2)n1", "stereo": "stereo not given", "A": -7.641, "B": 4.003}
{"compound": "O=C(O)CCCC(=O)N1CCC(c2noc3cc(F)ccc23)CC1", "A": -19.28, "B": -4.795}
{"compound": "CCOc1ccccc1OC1CCN(C(=O)c2cc[nH]n2)CC1", "A": -48.53, "B": -9.739}
{"compound": "COc1ccc(OCC2CCCN(c3nc(CO)cs3)C2)cc1", "stereo": "stereo not given", "A": 85.11, "B": 26.86}
{"compound": "Cc1cc(CC(=O)NC2CCCN(c3ccccc3F)C2=O)n[nH]1", "stereo": "stereo not given", "A": -24.48, "B": -2.482}
{"compound": "[H][C@@]12CN(Cc3ccccc3C)C[C@]1([H])OCC(=O)N2CC(N)=O", "A": -1.268, "B": -0.471}
{"compound": "CC(C)c1noc(C(C)N2CCN(CCCN3CCCC3=O)CC2)n1", "stereo": "stereo not given", "A": -5.942, "B": -15.57}
{"compound": "CN(CC(=O)N(C)C(c1ccc(Cl)cc1)c1cccnc1)C1CC1", "stereo": "stereo not given", "A": -48.57}
{"compound": "Cc1nccc(C(=O)N2CCCC2c2c(C)nn(C)c2C)n1", "stereo": "stereo not given", "A": -12.92, "B": -22.59}
{"compound": "O=C1CN(C(=O)[C@H]2CC[C@]3(CC2)CNC(=O)c2ccccc2O3)CCN1", "A": -6.646, "B": -5.748}
{"compound": "CCn1cnnc1C1CCN(C(=O)c2cc(C)n(CC)c2C)CC1", "A": -3.824, "B": 1.597}
{"compound": "NC(=O)CN1CCC(C(=O)NCCc2nc(-c3ccccc3)cs2)CC1", "A": -21.39, "B": -2.628}
{"compound": "CC[C@H]1NCCC[C@]12CCC(=O)N2Cc1ccncc1", "A": 4.47, "B": 1.795}
{"compound": "Cc1cc(NCCNS(C)(=O)=O)nc2cc3c(cc12)CCC3", "A": 12.23, "B": 5.447}
{"compound": "CN(Cc1noc(C(C)(C)C)n1)CC1CCN(CCO)CC1", "A": -54.83, "B": -4.678}
{"compound": "CN1CCN(Cc2ccccc2CNC(=O)c2cc(Br)ccc2F)CC1", "A": -33.67, "B": 0.6321}
{"compound": "[H][C@]12CC[C@]([H])(CN(Cc3cccnc3)C1)N(C(=O)c1cc(C(C)C)on1)C2", "A": 6.284, "B": -6.882}
{"compound": "CCOCc1ccccc1NC(=O)NCC(C)(O)c1cc(C)oc1C", "stereo": "stereo not given", "A": -15.34, "B": 3.187}
{"compound": "CCCc1nnc(N2CCN(c3ccccc3OCC)CC2)o1", "A": -29.5, "B": -6.171}
{"compound": "Cc1cc(C2CCCN2C(=O)c2cc3c(s2)CCC3)on1", "stereo": "stereo not given", "A": 13.93, "B": -0.4234}
{"compound": "COc1ccc(CN(C)[C@@H]2CN(C(=O)c3cccn3C)C[C@H]2O)cc1", "A": -10.71, "B": 19.55}
{"compound": "CCN1CCN(C(C)CNC(=O)Nc2nnc(C(C)C)s2)CC1", "stereo": "stereo not given", "A": 4.187, "B": -3.523}
{"compound": "CC(NC(=O)NCc1c(F)cccc1Cl)(C(=O)O)c1ccco1", "stereo": "stereo not given", "A": 8.361, "B": 11.45}
{"compound": "Cc1cc(N(C)Cc2cc(C(C)(C)C)n[nH]2)nc(-c2cccnc2)n1", "A": -22.49, "B": 0.6699}
{"compound": "CC(=O)c1ccc(CNC(=O)c2cc(C)nn2C)nc1C", "A": 5.111, "B": 5.455}
{"compound": "Cc1ccc2[nH]c(CN3CC[C@@H](N4CCN(C)CC4)[C@H](O)C3)c(C)c2c1", "A": -23.68, "B": -6.247}
{"compound": "CNC(=O)C1(N2CCC[C@H]2C(=O)NC2CC2)CCCCC1.Cl", "A": -14.26, "B": -3.475}
{"compound": "COCC1CCN(c2cc(C3CN(C)CCO3)nc(C)n2)CC1", "stereo": "stereo not given", "A": -12.54, "B": -1.608}
{"compound": "Cc1nnc2n1CCN(C(=O)c1cnc(C3CC3)s1)C2", "A": 23.59, "B": -1.644}
{"compound": "Cc1nc(-c2ccc(Cl)s2)sc1C(=O)O", "A": -25.33, "B": -5.08}
{"compound": "COCCN(Cc1cccnc1)S(=O)(=O)c1ccc(F)cc1C", "A": 27.32, "B": -1.512}
{"compound": "CC(C)N1CCC2(CC1)CC(=O)N(Cc1cc(F)cc(F)c1)C2", "A": -18.23, "B": -23.02}

2 of the entries, repeated:

CC(NC(=O)NCc1c(F)cccc1Cl)(C(=O)O)c1ccco1 (stereo not given) gave A: 8.361%; B: 11.45%.
CC(C)N1CCC2(CC1)CC(=O)N(Cc1cc(F)cc(F)c1)C2 gave A: -18.23%; B: -23.02%.